Reference: the supplement of paper PMC10849652
This is one part of the list.

Sequences of proteins named here, by UniProt entry; tags and fusion partners are left off. A change or cut given only in a name is not applied to a line headed by its entry.
UniProt Q12800: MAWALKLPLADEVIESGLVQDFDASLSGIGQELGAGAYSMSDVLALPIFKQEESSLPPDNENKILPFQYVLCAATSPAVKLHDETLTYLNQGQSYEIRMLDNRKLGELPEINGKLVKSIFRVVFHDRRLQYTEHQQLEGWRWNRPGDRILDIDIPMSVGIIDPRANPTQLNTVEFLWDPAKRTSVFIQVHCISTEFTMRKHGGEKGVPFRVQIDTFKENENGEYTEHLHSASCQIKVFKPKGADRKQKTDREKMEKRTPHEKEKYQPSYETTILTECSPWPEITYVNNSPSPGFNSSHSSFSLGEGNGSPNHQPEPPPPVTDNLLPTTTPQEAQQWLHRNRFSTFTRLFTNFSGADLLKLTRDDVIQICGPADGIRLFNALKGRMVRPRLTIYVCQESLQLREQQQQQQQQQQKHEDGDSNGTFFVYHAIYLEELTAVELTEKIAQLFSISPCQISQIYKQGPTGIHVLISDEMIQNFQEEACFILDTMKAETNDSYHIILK
UniProt Q6P1N9: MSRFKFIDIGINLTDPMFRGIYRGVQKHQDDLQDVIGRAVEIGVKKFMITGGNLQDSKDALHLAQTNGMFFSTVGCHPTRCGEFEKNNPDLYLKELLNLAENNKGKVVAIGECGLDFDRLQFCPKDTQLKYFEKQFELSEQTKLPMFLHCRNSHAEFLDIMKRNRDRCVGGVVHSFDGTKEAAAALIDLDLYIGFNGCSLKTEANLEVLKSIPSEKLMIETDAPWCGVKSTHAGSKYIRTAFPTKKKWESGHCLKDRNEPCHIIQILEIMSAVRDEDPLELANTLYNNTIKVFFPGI
UniProt Q13428: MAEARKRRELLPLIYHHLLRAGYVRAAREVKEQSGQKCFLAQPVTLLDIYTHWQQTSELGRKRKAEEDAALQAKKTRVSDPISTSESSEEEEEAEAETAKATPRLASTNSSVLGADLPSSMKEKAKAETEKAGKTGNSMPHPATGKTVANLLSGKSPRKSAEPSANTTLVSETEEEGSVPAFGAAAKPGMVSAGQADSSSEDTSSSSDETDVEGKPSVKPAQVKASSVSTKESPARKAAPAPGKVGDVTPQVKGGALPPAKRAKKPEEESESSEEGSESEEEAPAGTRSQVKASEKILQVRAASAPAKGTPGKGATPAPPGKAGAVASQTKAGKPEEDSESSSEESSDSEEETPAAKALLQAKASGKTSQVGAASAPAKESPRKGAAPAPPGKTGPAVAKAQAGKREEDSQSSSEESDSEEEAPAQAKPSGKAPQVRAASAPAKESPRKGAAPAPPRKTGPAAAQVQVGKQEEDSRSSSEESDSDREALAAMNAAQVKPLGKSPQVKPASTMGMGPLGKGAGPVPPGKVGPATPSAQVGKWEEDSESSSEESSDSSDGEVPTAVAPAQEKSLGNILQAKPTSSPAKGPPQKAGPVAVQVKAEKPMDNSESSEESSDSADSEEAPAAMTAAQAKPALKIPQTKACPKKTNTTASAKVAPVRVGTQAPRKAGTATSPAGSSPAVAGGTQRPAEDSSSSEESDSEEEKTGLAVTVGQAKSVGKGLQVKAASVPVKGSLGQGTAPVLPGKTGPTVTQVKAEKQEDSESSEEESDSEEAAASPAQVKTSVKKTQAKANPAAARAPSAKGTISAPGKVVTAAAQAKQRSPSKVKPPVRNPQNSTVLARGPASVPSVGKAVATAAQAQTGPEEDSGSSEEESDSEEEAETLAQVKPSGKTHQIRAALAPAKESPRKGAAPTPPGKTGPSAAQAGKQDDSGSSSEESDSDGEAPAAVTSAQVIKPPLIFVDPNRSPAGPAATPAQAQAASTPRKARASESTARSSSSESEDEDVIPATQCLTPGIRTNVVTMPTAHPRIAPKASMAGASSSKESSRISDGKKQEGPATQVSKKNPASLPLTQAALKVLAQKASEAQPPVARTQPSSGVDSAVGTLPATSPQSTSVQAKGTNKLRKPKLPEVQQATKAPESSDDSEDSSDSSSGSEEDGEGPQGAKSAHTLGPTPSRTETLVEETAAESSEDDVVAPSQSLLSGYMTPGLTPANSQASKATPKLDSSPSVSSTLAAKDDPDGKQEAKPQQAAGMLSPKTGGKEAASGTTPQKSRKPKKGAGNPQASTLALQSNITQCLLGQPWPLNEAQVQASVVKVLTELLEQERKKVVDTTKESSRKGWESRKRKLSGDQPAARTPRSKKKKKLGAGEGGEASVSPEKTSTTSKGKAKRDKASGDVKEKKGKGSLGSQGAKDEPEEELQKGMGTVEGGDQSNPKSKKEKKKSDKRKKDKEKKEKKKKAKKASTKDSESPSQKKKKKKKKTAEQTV
UniProt O60343: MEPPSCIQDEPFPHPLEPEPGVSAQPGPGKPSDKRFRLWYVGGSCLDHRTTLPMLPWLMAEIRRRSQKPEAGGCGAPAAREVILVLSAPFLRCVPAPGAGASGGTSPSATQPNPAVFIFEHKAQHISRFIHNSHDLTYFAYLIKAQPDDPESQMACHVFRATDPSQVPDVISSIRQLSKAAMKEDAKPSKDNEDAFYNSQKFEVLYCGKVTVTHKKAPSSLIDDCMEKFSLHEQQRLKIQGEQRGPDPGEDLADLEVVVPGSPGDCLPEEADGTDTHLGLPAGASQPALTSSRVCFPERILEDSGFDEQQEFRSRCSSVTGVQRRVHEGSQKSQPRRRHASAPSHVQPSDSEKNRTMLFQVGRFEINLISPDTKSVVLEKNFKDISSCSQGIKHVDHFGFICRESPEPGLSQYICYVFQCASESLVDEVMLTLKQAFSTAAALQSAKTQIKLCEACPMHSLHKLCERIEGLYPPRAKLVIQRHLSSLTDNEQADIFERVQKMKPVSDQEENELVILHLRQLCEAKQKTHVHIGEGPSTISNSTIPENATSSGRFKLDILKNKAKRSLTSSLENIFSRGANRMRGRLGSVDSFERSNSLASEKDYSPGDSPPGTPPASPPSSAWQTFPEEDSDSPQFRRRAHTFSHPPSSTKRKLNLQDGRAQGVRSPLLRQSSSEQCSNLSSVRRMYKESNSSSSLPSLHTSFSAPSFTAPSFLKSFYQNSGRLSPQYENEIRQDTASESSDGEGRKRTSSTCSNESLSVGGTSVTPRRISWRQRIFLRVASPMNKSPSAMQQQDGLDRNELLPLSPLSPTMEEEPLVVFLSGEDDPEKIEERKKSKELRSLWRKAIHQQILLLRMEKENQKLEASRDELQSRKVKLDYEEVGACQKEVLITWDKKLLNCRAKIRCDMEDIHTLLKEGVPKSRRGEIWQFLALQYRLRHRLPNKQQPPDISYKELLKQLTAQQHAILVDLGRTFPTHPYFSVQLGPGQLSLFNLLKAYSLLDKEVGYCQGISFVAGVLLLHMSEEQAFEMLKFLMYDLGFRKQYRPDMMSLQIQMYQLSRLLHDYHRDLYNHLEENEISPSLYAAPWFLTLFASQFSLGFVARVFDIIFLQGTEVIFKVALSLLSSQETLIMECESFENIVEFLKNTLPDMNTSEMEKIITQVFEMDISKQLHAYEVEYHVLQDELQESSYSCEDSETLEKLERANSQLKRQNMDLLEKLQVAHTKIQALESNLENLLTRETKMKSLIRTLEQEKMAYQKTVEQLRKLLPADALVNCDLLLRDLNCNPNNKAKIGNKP
UniProt Q92734, whole entry, looked up: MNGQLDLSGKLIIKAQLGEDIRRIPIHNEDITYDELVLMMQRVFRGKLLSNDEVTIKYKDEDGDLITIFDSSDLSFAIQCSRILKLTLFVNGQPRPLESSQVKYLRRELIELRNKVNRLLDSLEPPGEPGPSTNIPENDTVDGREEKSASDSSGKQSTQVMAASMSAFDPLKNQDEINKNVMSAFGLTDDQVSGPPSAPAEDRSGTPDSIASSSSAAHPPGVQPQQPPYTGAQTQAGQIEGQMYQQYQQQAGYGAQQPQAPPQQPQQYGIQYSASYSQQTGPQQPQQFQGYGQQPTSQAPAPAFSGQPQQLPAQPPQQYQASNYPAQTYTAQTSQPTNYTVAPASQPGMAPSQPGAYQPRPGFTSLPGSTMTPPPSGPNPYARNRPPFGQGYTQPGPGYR
UniProt Q6ICL3: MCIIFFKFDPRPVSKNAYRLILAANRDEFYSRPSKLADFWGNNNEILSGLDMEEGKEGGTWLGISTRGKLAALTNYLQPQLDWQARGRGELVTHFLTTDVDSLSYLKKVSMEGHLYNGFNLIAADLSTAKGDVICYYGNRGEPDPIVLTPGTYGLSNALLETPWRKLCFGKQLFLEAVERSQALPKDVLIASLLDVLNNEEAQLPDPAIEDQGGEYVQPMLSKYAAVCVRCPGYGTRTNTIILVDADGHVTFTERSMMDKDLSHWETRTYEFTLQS
UniProt P17542, whole entry, looked up: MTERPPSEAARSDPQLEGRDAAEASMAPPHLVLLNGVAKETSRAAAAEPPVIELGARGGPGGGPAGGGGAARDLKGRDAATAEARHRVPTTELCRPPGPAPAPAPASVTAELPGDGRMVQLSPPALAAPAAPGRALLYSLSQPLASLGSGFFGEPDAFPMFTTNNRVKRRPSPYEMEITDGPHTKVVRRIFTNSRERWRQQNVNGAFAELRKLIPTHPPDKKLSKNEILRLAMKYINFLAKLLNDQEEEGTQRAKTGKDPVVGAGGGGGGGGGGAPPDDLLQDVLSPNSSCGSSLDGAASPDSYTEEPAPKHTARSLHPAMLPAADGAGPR
UniProt Q9Y4P3: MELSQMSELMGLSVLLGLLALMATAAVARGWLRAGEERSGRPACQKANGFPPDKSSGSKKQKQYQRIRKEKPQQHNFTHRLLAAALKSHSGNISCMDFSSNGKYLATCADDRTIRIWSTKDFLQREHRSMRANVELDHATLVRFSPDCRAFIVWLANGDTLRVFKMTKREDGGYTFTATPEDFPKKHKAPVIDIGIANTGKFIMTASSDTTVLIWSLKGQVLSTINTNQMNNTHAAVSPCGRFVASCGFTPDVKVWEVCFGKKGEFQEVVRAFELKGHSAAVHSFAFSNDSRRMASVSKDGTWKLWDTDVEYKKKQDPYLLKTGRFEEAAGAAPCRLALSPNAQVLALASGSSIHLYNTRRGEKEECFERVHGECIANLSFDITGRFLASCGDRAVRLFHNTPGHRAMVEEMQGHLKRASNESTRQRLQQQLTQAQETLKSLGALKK
UniProt Q5JUR7: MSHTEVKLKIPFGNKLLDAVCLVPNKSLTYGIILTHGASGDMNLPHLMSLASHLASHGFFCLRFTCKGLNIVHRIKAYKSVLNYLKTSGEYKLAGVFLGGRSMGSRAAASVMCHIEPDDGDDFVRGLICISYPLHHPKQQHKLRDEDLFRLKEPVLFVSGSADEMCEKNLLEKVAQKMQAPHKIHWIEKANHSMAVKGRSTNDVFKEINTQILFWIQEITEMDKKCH
UniProt Q7L7X3: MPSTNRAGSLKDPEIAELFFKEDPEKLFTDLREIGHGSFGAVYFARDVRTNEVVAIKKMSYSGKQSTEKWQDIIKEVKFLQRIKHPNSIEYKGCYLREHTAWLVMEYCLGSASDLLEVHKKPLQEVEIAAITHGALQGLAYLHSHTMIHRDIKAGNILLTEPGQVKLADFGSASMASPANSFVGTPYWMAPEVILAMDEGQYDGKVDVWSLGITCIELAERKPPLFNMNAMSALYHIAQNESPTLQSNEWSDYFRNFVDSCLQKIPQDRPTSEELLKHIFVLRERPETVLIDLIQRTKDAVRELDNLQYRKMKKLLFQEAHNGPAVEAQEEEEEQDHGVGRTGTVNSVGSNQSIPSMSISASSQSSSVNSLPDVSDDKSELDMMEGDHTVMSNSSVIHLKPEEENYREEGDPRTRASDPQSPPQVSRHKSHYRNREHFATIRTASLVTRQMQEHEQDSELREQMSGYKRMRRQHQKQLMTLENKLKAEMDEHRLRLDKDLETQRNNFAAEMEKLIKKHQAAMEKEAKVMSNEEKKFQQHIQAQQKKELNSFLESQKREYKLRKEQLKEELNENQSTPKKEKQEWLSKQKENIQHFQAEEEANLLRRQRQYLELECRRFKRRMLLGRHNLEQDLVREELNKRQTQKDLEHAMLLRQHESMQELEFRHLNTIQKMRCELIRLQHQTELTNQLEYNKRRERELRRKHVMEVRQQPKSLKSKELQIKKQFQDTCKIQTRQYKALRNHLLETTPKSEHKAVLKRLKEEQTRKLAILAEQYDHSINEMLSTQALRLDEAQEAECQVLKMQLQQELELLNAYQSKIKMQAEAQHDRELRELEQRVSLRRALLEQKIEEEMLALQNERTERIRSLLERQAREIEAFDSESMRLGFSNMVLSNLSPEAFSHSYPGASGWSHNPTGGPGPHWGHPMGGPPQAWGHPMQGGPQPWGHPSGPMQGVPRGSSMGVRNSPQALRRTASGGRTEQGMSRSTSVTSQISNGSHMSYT

Tests used:
Test in all cases: log2 fold change, soluble protein after heating vs DMSO (PISA); higher = thermal stabilisation; K562 lysate, 10 uM; active = over 0.2 and 3.5 SD of the protein, either way, in both replicates (recomputed)
[1] = compound: Cc1cn(-c2cc(NC(=O)c3ccc(C)c(Nc4nccc(-c5cccnc5)n4)c3)cc(C(F)(F)F)c2)cn1 [nilotinib]
Method in brief: (§1)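 The values are log-two fold changes in thermal stability compared with solvent controls and come from duplicates. They were obtained by TMTpro 16plex LC-MS/MS, with channel sums equalised, on the supernatant after 21,000xg for 90 min. That supernatant came from crude K562 extract at 1 mg/mL protein treated with 10 μM compound for 30 min, heated for 3 min across 48°C-58°C, pooled and brought to 0.5% NP-40 at 4°C.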

[2] = compound: Cc1nc(Nc2n[nH]c3c2CN(C(=O)N[C@H](CN(C)C)c2ccccc2)C3(C)C)c2sccc2n1
Method in brief: as §1

[3] = compound: Cc1nc(Nc2ncc(C(=O)Nc3c(C)cccc3Cl)s2)cc(N2CCN(CCO)CC2)n1 [dasatinib]
Method in brief: as §1

[4] = compound: Cc1ncc(-c2ccnc(Nc3ccc(S(C)(=O)=O)cc3)n2)n1C(C)C
Method in brief: as §1

[5] = compound: Cn1cc(-c2ccc3c(c2)CCN3C(=O)Cc2cccc(C(F)(F)F)c2)c2c(N)ncnc21
Method in brief: as §1

[6] = compound: Cn1cc(CNCC2CCN(c3ncc(C(=O)NO)cn3)CC2)c2ccccc21 [quisinostat]
Method in brief: as §1

[7] = compound: Cn1cncc1[C@@](N)(c1ccc(Cl)cc1)c1ccc2c(c1)c(-c1cccc(Cl)c1)cc(=O)n2C [tipifarnib]
Method in brief: as §1

[8] = compound: NC(=O)Nc1cc(-c2cccc(F)c2)sc1C(=O)N[C@H]1CCCNC1
Method in brief: as §1

[9] = compound: NC(=O)c1cnc(N[C@@H]2CCCC[C@@H]2N)nc1Nc1cccc(-n2nccn2)c1
Method in brief: as §1

[10] = compound: NC1(c2ccc(-c3nc4ccn5c(=O)[nH]nc5c4cc3-c3ccccc3)cc2)CCC1
Method in brief: as §1

[11] = compound: NCC(=O)Nc1ccc(-n2nc(C(F)(F)F)cc2-c2ccc3c(ccc4ccccc43)c2)cc1
Method in brief: as §1

[12] = compound: O=C(CCCCCCC(=O)Nc1ccccc1)NO [vorinostat]
Method in brief: as §1

[13] = compound: O=C(O)c1ccc2c(c1)nc(Nc1cccc(Cl)c1)c1ccncc12 [silmitasertib]
Method in brief: as §1

[14] = compound: O=C1NC(=O)C(c2cnc3ccccn23)=C1c1cn2c3c(cc(F)cc13)CN(C(=O)N1CCCCC1)CC2
Method in brief: as §1

[15] = compound: c1cn2cc(-c3ccc4cn[nH]c4c3)nc(Nc3ccc(N4CCOCC4)cc3)c2n1 [entospletinib]
Method in brief: as §1

| Target | log2 fold change [1] | log2 fold change [2] | log2 fold change [3] | log2 fold change [4] | log2 fold change [5] | log2 fold change [6] | log2 fold change [7] | log2 fold change [8] | log2 fold change [9] | log2 fold change [10] | log2 fold change [11] | log2 fold change [12] | log2 fold change [13] | log2 fold change [14] | log2 fold change [15] |
| --- | --- | --- | --- | --- | --- | --- | --- | --- | --- | --- | --- | --- | --- | --- | --- |
| TBC1D25 (UniProt Q3MII6) | inactive: 0.009 | inactive: -0.207 | inactive: 0.006 | inactive: 0.09 | inactive: 0.011 | inactive: 0.084 | inactive: 0.183 | inactive: 0.001 | inactive: 0.102 | inactive: 0.076 | inactive: -0.011 | inactive: 0.219 | inactive: -0.059 | inactive: -0.018 | inactive: 0.006 |
| TFCP2 (UniProt Q12800) | inactive: 0.042 | inactive: 0.023 | inactive: -0.015 | inactive: 0.023 | inactive: 0.02 | inactive: -0.072 | inactive: -0.022 | inactive: 0.066 | inactive: 0.066 | inactive: -0.059 | inactive: -0.072 | active: -0.465 | inactive: 0.045 | inactive: 0.029 | inactive: 0.051 |
| TATDN1 (UniProt Q6P1N9) | inactive: -0.047 | inactive: -0.004 | inactive: 0.037 | inactive: 0.022 | inactive: 0.018 | inactive: 0.015 | inactive: 0.02 | inactive: 0.004 | inactive: 0.022 | inactive: 0.002 | inactive: 0.004 | inactive: 0.084 | inactive: -0.001 | inactive: -0.025 | inactive: -0.022 |
| TCOF1 isoform 4 (UniProt Q13428) | inactive: 0 | inactive: -0.014 | inactive: 0.028 | inactive: -0.006 | inactive: -0.008 | inactive: -0.014 | inactive: -0.014 | inactive: -0.011 | inactive: -0.006 | inactive: -0.012 | inactive: 0.013 | inactive: 0.032 | inactive: -0.019 | inactive: 0.009 | inactive: 0.002 |
| TBC1D4 (UniProt O60343) | inactive: -0.035 | inactive: 0.031 | inactive: -0.005 | inactive: -0.016 | inactive: 0.005 | inactive: 0.039 | inactive: -0.005 | inactive: -0.012 | inactive: 0.025 | inactive: -0.01 | inactive: -0.017 | inactive: -0.19 | inactive: -0.012 | inactive: -0.017 | inactive: -0.035 |
| TFG (UniProt Q92734) | inactive: -0.015 | inactive: 0.02 | inactive: 0.041 | inactive: -0.028 | inactive: -0.004 | inactive: 0.014 | inactive: 0.032 | inactive: -0.028 | inactive: -0.016 | inactive: -0.017 | inactive: -0.005 | inactive: 0.11 | inactive: -0.02 | inactive: -0.001 | inactive: 0.008 |
| TANGO2 isoform 4 (UniProt Q6ICL3) | inactive: 0.031 | inactive: 0.056 | inactive: 0.014 | inactive: -0.05 | inactive: -0.017 | inactive: 0.057 | inactive: -0.008 | inactive: -0.017 | inactive: 0.039 | inactive: -0.019 | inactive: -0.07 | inactive: -0.112 | inactive: 0.027 | inactive: -0.019 | inactive: -0.045 |
| TARBP1 (UniProt Q13395) | inactive: -0.045 | inactive: 0.036 | inactive: -0.03 | inactive: -0.003 | inactive: 0.046 | inactive: -0.158 | inactive: 0.007 | inactive: 0.142 | inactive: 0.007 | inactive: -0.021 | inactive: -0.151 | active: -0.608 | inactive: 0.097 | inactive: 0.017 | inactive: 0.028 |
| TBC1D13 (UniProt Q9NVG8) | inactive: 0.023 | inactive: -0.038 | inactive: -0.021 | inactive: -0.005 | inactive: 0.009 | inactive: 0.008 | inactive: -0.034 | inactive: 0.016 | inactive: 0.002 | inactive: 0.008 | inactive: 0.023 | inactive: -0.049 | inactive: 0.005 | inactive: -0.003 | inactive: 0.014 |
| TEPSIN, A0A1B0GV70 | inactive: 0.03 | inactive: 0.019 | inactive: -0.008 | inactive: 0.094 | inactive: -0.005 | inactive: 0.099 | inactive: -0.129 | inactive: -0.045 | inactive: 0.012 | inactive: 0.062 | inactive: -0.223 | inactive: -0.235 | inactive: 0.147 | inactive: 0.035 | inactive: -0.03 |
| TDRKH (UniProt Q9Y2W6) | inactive: -0.01 | inactive: -0.077 | inactive: -0.059 | inactive: 0.018 | inactive: 0.028 | inactive: -0.087 | inactive: -0.048 | inactive: 0.041 | inactive: 0.003 | inactive: 0.067 | inactive: -0.031 | inactive: -0.223 | inactive: 0.024 | inactive: -0.052 | inactive: 0.056 |
| TAL1 (UniProt P17542) | inactive: 0.024 | inactive: -0.044 | inactive: 0.034 | inactive: -0.052 | inactive: 0.021 | inactive: -0.034 | inactive: -0.059 | inactive: 0.037 | inactive: -0.054 | inactive: -0.024 | inactive: 0.023 | inactive: 0.021 | inactive: 0.001 | inactive: 0.015 | inactive: -0.011 |
| TES (UniProt Q9UGI8) | inactive: 0.011 | inactive: -0.005 | inactive: 0.023 | inactive: 0.017 | inactive: -0.001 | inactive: 0.02 | inactive: 0.011 | inactive: -0.026 | inactive: 0.001 | inactive: -0.008 | inactive: 0.013 | inactive: 0.033 | inactive: -0.004 | inactive: 0.026 | inactive: -0.003 |
| TBL2 (UniProt Q9Y4P3) | inactive: -0.025 | inactive: -0.043 | inactive: -0.008 | inactive: -0.004 | inactive: 0.014 | inactive: -0.031 | inactive: -0.06 | inactive: -0.007 | inactive: 0.003 | inactive: -0.037 | inactive: -0.035 | active: -0.292 | inactive: -0.007 | inactive: -0.035 | inactive: 0.02 |
| TAMM41 isoform 3 (UniProt Q96BW9) | inactive: -0.032 | inactive: 0.016 | inactive: 0.04 | inactive: 0.005 | inactive: -0.018 | inactive: 0.056 | inactive: -0.008 | inactive: 0.069 | inactive: -0.047 | inactive: -0.005 | inactive: 0.043 | inactive: 0.162 | inactive: 0.018 | inactive: 0.008 | inactive: 0.009 |
| TDRD7 (UniProt Q8NHU6) | inactive: -0.005 | inactive: -0.038 | inactive: 0.006 | inactive: -0.034 | inactive: -0.013 | inactive: -0.062 | inactive: -0.019 | inactive: 0.081 | inactive: 0.002 | inactive: 0.013 | inactive: -0.046 | inactive: -0.147 | inactive: 0.033 | inactive: -0.021 | inactive: -0.021 |
| TEX30 (UniProt Q5JUR7) | inactive: -0.036 | inactive: 0.072 | inactive: -0.109 | inactive: 0.003 | inactive: -0.004 | inactive: 0.007 | inactive: 0 | inactive: 0.046 | inactive: -0.017 | inactive: -0.052 | inactive: 0.035 | active: -0.534 | inactive: 0.041 | inactive: -0.006 | inactive: 0.001 |
| TAOK1 (UniProt Q7L7X3) | inactive: -0.016 | inactive: 0.015 | inactive: -0.035 | inactive: -0.02 | inactive: -0.075 | inactive: -0.022 | inactive: 0.062 | inactive: -0.007 | inactive: 0.048 | inactive: 0.017 | inactive: 0.02 | inactive: 0.008 | inactive: -0.02 | inactive: 0.001 | inactive: 0.008 |
| TERF2 (UniProt Q15554) | inactive: 0.089 | inactive: 0.021 | inactive: -0.03 | inactive: -0.024 | inactive: 0.055 | inactive: -0.005 | inactive: 0.006 | inactive: 0.028 | inactive: 0.048 | inactive: -0.022 | inactive: 0.008 | inactive: 0.158 | inactive: 0.004 | inactive: 0.003 | inactive: -0.034 |
| TAOK3 (UniProt Q9H2K8) | inactive: -0.025 | inactive: 0.019 | inactive: -0.012 | inactive: 0.05 | inactive: 0 | inactive: -0.022 | inactive: 0.007 | inactive: -0.003 | inactive: 0.019 | inactive: -0.022 | inactive: 0.061 | inactive: 0.041 | inactive: 0.189 | inactive: -0.021 | inactive: -0.025 |

Single records (already shown). Values in the order: log2 fold change [1]	log2 fold change [2]	log2 fold change [3]	log2 fold change [4]	log2 fold change [5]	log2 fold change [6]	log2 fold change [7]	log2 fold change [8]	log2 fold change [9]	log2 fold change [10]	log2 fold change [11]	log2 fold change [12]	log2 fold change [13]	log2 fold change [14]	log2 fold change [15]
TBC1D4 (UniProt O60343) as listed: inactive: -0.035	inactive: 0.031	inactive: -0.005	inactive: -0.016	inactive: 0.005	inactive: 0.039	inactive: -0.005	inactive: -0.012	inactive: 0.025	inactive: -0.01	inactive: -0.017	inactive: -0.19	inactive: -0.012	inactive: -0.017	inactive: -0.035
TFG (UniProt Q92734) as listed: inactive: -0.015	inactive: 0.02	inactive: 0.041	inactive: -0.028	inactive: -0.004	inactive: 0.014	inactive: 0.032	inactive: -0.028	inactive: -0.016	inactive: -0.017	inactive: -0.005	inactive: 0.11	inactive: -0.02	inactive: -0.001	inactive: 0.008
